{"sequences": {"note": "Chains of the proteins cited; added tags and fusions are not shown. Lines headed by an entry give the natural chain unless they say otherwise; changes in a name come on top.", "UniProt P23258": "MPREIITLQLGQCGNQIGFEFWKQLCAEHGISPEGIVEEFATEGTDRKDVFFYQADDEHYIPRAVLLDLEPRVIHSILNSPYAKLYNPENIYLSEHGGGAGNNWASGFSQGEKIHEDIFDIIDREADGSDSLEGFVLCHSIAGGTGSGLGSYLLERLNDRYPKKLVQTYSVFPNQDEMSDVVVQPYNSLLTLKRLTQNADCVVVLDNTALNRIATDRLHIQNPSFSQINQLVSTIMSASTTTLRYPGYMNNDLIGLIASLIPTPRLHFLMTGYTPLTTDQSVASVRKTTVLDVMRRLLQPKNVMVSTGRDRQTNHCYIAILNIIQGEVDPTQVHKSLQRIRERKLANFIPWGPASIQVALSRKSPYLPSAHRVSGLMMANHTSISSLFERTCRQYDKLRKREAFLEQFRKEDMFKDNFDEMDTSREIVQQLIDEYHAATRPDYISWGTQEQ"}, "source": "paper PMC2821401", "biological_target": "T1, Kaiso (human (endogenous in HeLa-GFP-centrin and SK-LMS-1)) (UniProt Q86T24)", "T1 sequence": "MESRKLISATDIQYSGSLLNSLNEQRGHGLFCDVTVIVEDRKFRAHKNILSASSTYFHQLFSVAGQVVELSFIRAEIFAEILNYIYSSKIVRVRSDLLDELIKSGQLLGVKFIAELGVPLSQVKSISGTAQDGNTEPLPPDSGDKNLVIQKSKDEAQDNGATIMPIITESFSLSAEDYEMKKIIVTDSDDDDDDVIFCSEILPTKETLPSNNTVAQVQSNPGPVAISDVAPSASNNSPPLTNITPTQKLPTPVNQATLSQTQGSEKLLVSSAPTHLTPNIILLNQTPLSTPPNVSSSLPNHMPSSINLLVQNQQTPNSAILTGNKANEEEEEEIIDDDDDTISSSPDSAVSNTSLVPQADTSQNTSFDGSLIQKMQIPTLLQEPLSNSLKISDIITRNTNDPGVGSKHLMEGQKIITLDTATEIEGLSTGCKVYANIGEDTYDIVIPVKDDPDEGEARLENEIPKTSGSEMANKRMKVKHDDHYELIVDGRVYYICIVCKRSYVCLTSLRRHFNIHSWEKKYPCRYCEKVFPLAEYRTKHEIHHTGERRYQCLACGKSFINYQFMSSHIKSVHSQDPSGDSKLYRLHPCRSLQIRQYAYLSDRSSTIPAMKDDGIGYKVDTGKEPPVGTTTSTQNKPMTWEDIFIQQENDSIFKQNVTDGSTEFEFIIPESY", "assay": "co-IP; endogenous proteins; lysates of HeLa-GFP-centrin and SK-LMS-1 cells in 145 mM NaCl, 5 mM EDTA, 2 mM EGTA, 10 mM Tris-HCl pH 7.4, 1% Triton X-100; precipitated with anti-Kaiso pAb S1337 on Dynabeads protein G; western blot", "note": "These are yes or no findings as the source states them, for the method shown. Binding seen in cells or lysates may run through a third protein. Binding can be weak; no strength is given. Tags and fused reporters may be left off the sequences shown."}
{"substance": "γ-tubulin (from UniProt P23258)", "values": [{"measurement": "binding", "result": "binds"}]}
